LdMetRS: 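Methionyl-tRNA synthetase (putative), Leishmania donovani (UniProt E9BF75). Primary screen of methionyl-tRNA synthetase; the read-out is not stated. The test concentration is not given. Values are per cent inhibition. Size under these conditions: about 68,000 compounds, about 24 of them at 50% or above in at least one test.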
Mtb heat-shock: 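Assay on Mycobacterium tuberculosis, filed only as a heat shock assay from Cornell; the read-out is not stated. The concentration is filed as 10 mM, unlikely as a test dose, so the dose is not known. The record gives no direction; compounds that gave an IC50 in retests scored well above the rest, so higher reads as stronger inhibition. About 69,000 compounds were tested under these conditions; 1.4% (about 930) showed 50% or more at least once.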

Sequences of proteins named here, by UniProt entry; tags and fusion partners are left off.
UniProt E9BF75, entry or part of it: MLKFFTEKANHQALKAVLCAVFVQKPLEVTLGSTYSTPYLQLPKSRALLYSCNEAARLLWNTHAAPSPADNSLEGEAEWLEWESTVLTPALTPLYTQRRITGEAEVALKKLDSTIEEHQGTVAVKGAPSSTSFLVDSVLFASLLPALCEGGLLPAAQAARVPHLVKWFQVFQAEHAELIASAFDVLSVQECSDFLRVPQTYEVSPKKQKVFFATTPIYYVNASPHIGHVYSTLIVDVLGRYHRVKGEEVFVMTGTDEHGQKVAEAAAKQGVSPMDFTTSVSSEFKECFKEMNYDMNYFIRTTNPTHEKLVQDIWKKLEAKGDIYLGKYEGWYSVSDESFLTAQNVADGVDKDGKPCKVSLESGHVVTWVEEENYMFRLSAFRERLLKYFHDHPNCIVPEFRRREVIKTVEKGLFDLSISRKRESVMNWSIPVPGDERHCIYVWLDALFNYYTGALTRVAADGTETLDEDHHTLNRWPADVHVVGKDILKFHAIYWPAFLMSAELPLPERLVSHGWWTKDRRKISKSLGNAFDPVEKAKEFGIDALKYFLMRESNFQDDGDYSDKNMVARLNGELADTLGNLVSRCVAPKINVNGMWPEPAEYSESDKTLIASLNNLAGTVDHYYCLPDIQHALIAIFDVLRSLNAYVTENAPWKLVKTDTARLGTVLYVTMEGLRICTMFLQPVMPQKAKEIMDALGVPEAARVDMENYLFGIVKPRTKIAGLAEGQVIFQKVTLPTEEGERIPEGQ

Results are percentages, as filed. The record does not define 0% and 100%; most values in the screen are far below 50% and negative numbers occur (in some assays of this library far below -100). The compounds are a random part of those screened. A dash means the value is not listed here; it may have been measured.

compound	LdMetRS	Mtb heat-shock
CCc1nc(CN2CCCN(C(=O)CCCOC)CC2)cs1	12.65	2.472
CC(C(=O)N1CCc2sccc2C1)N1CCC(S(N)(=O)=O)CC1 (centres undefined)	12.11	12.21
Cn1cc(CN2CCc3c(cnc(-c4ccccc4)c3C(=O)O)C2)cn1.O=C(O)C(F)(F)F.O=C(O)C(F)(F)F	-	-6.919
Cc1cccnc1NC(=O)C1(n2cnnn2)CCCCC1	16.91	10.66
Fc1cccc(Cl)c1CNCc1ccccn1	4.805	50.99
Cc1cnn(CCNCc2ccc(F)cc2Cl)c1	12.38	19.12
CCC1CN(CCCNS(C)(=O)=O)c2ccccc2O1 (centres undefined)	8.383	2.427
O=C(c1ccc(-c2ccc(O)nc2)s1)N1CCCCCC1	7.789	-3.161
COc1cccc(C(=O)N2CCCC(CNS(C)(=O)=O)C2)c1 (centres undefined)	13.19	8.173
Cc1c(C(C)NC2CCN(C(C)C)CC2)cnn1-c1ccc(F)cc1F (centres undefined)	5.16	7.49
CC(NC(=O)c1cccs1)C(=O)NS(=O)(=O)c1ccc(C#N)cc1 (centres undefined)	8.935	-1.364
Cc1noc(C2CCN(Cn3cc(Br)cn3)CC2)n1	15.97	1.605
COCCc1noc(CN2CCc3nn(C(C)C)c(=O)cc3C2)n1	6.299	-13.17
CCN(CC)c1nc2sc(C(=O)N3CCNC(=O)C3)cc2s1	11.48	6.169
O=C(NCC1CC1)C1CN(C(=O)c2ccco2)CC12CCOCC2 (centres undefined)	12.77	4.598
Cc1cccc(CN2CCc3[nH]nc(C(=O)N(C)C)c3C2)n1	7.778	-
CN(Cc1ccc(CCC(C)(C)O)cc1)Cc1cccnc1	9.804	-11.95
COc1cccc2c1OCC(Cc1ccc(N)nc1C)C2 (centres undefined)	6.954	-16.89
CCCn1nc2c(cc1=O)CN(Cc1nnc(C3CC3)o1)CC2	0	7.567
CCN(CC)c1ncc(Cl)c(C(=O)NC2CCc3nccn3C2)n1 (centres undefined)	13.35	8.341
Cc1c(C(=O)N2CC(O)C2)nnn1-c1cccc2cnccc12	17.69	2.506
CCN1C(=O)CC(N(C)Cc2nc3ccccc3c(=O)[nH]2)C1=O (centres undefined)	0.8357	16.93
CN(C)[C@@H]1CN(Cc2ccc(O)cc2)C[C@H]1c1cn(C)c2ccccc12.Cl	-	10.72
OC1CCN(c2ccnc3c(F)cc(Br)cc23)CC1	4.032	0.5945
COc1ccc(-c2cc3cccn(CC(=O)N4CCOCC4)c-3n2)cc1	8.228	-34.2
O=C([C@H]1CN(CCc2ccccc2)C[C@H]2OCC[C@@H]12)N1CCCO1	17.99	-
CC(C)N(CCO)C(=O)c1cc(COc2ccc3c(c2)CCCC3)on1	10.45	-18.77
CCC[C@H]1CN(c2nc(CO)cs2)C[C@@H]1NC(=O)C1CCC1	25.5	11.92
CN1CCN(CCOc2ccc(NC(=O)c3ccoc3)cc2)CC1	14.25	-8.534
[H][C@@]12CCN(Cc3nccs3)C[C@@]1([H])O[C@@H](c1ccncn1)C2	-	6.037
[H][C@@]12CCN(C(=O)Cc3cccc(O)c3)C[C@]1([H])[C@@H](c1ccccc1)CN2C	-	3.805
[H][C@@]12CCCN1CCCN(Cc1cc3cccc(C)c3[nH]c1=O)C2	-	18.16
CC(C)N(Cc1ccccc1)C(=O)NCCNC(=O)c1cccnc1	11.15	20.42
O=C1CC[C@H]2[C@H](CCN2C(=O)N2CCCC2)N1Cc1ccncc1	9.51	-
CCS(=O)(=O)N1CCN(C(=O)C(C)C)CC2(CC(=O)N(C)C2)C1 (centres undefined)	12.41	0.2304
CC(C)(Oc1ccc(C(N)=O)cc1)C(=O)N(CCC#N)C1CC1	3.056	17.75
CS(=O)(=O)N1CCC(OCCCc2ccccc2)C1 (centres undefined)	7.853	-0.5077
Cc1nc(CO[C@H]2CN(Cc3cccs3)[C@@H]3COC[C@H]23)cs1	15.62	-
CCOc1ccc(Cl)cc1C(C(=O)O)N1CCOCC1 (centres undefined)	9.804	8.935
Cc1nn(C)c2nc(N3CCCC3c3nccs3)sc12 (centres undefined)	14.29	5.163
COCCN1C[C@@H]2[C@@H](OC)CCN(C(=O)c3cccc(OC)c3)[C@@H]2C1	6.25	-
COc1ccc2nnc(CCC(=O)Nc3nc4c(s3)CCC4)n2n1	8.602	-5.483

The last 5 entries again:

{"compound": "Cc1nc(CO[C@H]2CN(Cc3cccs3)[C@@H]3COC[C@H]23)cs1", "LdMetRS": 15.62}
{"compound": "CCOc1ccc(Cl)cc1C(C(=O)O)N1CCOCC1", "stereo": "centres undefined", "LdMetRS": 9.804, "Mtb heat-shock": 8.935}
{"compound": "Cc1nn(C)c2nc(N3CCCC3c3nccs3)sc12", "stereo": "centres undefined", "LdMetRS": 14.29, "Mtb heat-shock": 5.163}
{"compound": "COCCN1C[C@@H]2[C@@H](OC)CCN(C(=O)c3cccc(OC)c3)[C@@H]2C1", "LdMetRS": 6.25}
{"compound": "COc1ccc2nnc(CCC(=O)Nc3nc4c(s3)CCC4)n2n1", "LdMetRS": 8.602, "Mtb heat-shock": -5.483}

Source: ChEMBL document CHEMBL3988442, “University of Dundee, Small-Polar-MMV Screening Library” (2021).